# From patent publication US3985740A, “7-[D-(α-amino-α-phenyl-, 2-thienyl- and 3-thienylacetamido)]-3-(5-methylthiazol-2-yl)carbonylthiomethyl-3-cephem -4-carboxylic acids” (Bristol-Myers Company, priority 1974, dated 1976)
# Experiment: Blood levels in the mouse after oral administration
# Format: in vivo
# Settings: 100 mg/kg, 100 mgm./kg., read-out: Blood Level
# Protocol: Blood levels in the mouse after oral administration were
# determined with the following results:
# Blood Level in mcg./ml.
# Hrs. after adminis- tration.
structure (smiles),measurement,setting,value
"CC1=C(C(=O)O)N2C(=O)[C@@H](NC(=O)[C@H](N)c3ccccc3)[C@H]2SC1 [cephalexin, reference compound]",concentration at 0.5 h,0.5 hrs. after administration,44600 ng/mL
same,concentration at 1 h,1 hr. after administration,23400 ng/mL
same,concentration at 2 h,2 hrs. after administration,6100 ng/mL
same,concentration at 3.5 h,3.5 hrs. after administration,1700 ng/mL
